Measured data: PubChem BioAssay AID504791 (Drosophila RNAi Screening Center, 2011)

Assay: 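Factors in Argonaute-based small RNA production and activity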 (primary screen)
System: Drosophila S2-derived reporter cells
Reagents: long dsRNA against Drosophila genes, about 150-250 ng dsRNA per well (siRNA assay); about 80-120 ng (miRNA assay)
Duration: about 5 days (siRNA assay); about 4 days (miRNA assay)
Treatment: copper sulfate induction of reporters: 25 µM (siRNA assay); 200 mM stated (miRNA assay), 1-2 days before reading
Measurement: 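Per-well ratio of Renilla over firefly light, expressed relative to that plate's average ratio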
Scale: siRNA reporter hit score: higher = 3 marks a strong hit with raised ratio; -3 a strong hit with lowered ratio
Call rule: 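First-pass picks had plate-scaled ratios over 1.5 for the siRNA assay, over 1.6 for the miRNA assay, or under 0.6; two distinct dsRNAs had to score alike on retest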
In all, the deposit lists about 23,000 reagents; below is an unselected part of those with a known target gene and a result. In the full data, 199 (0.86%) are marked active. 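Plate-scaled ratios behind the calls are not deposited; printed light signals are raw; many rows marked increased or decreased are still called inactive.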 Entries without a mark were called inactive. Reagents against one gene are numbered here. A plus sign joins genes that one reagent is predicted to hit. Not all columns of the deposit are shown.

Target gene,reagent no.,siRNA reporter hit score,stable siRNA reporter change,miRNA reporter change,"stable assay Renilla, run 1 (luminescence)"
Jhbp6,1,,,,6380
Ide,1,,,,8424
Erasp,1,,,,12593
fmt,1,,,,8726
Rip11,1,,,,8378
ItgaPS4,1,,,,6502
ppk6,1,,,,5770
CG12828,1,,,,8063
CG4042,1,,,,7454
Drep3,1,,,,3496
Drep3,2,,,,3480
Drep3,3,,,,8142
Capa,1,,,,7078
CG33964 + CG13175,1,,,,6411
CG33964 + CG13175,2,,,,6172
CG33964 + CG13175,3,,,,6334
CG30265,1,,,,9403
CG5727,1,,,,5.73e5
Vps45,1,,,,6950
CG1774,1,,,,7087
CG17230,1,,,,8714
CG17287,1,,,,8155
Ac78C,1,,,,7250
Ac78C,2,,,,7030
Ac78C,3,,,,7471
CG7420,1,,,,36866
Lac,1,,,,8484
CG2444,1,,,,4691
CG34129,1,,,,7018
CG15035,1,,,,6131
Rop,1,,,,7215
rho-4,1,,,,7075
rho-4,2,,,,5591
Mst98Cb,1,,,,4515
Mst98Cb,2,,reporter ratio lowered past the hit cutoff,,2012
CG9967,1,,,,10736
CG9986,1,,,,7898
not,1,,,,7147
CG13705,1,,,,7330
CG13705,2,,,,4459
CG15262,1,,,,8046
Gtpx,1,,,,8380
Gtpx,2,,,,8954
CG3795,1,,,,7462
CG12321,1,,,,8624
CG10877,1,,,,8044
CG3603,1,,,,6507
Hex-C,1,,,,6170
Uba2,1,,reporter ratio lowered past the hit cutoff,,5358
CG13392,1,,,,7347
GstD3,1,,,,6846
mask,1,,,,8125
mask,2,,,,10019
mask,3,,,,9939
betaTub97EF,1,,,,6443
betaTub97EF,2,,,,5875
betaTub97EF,3,,,,6278
Obp57c + Obp57b,1,,,,9358
shg,1,,,,63680
Sik2,1,,,,8279
GlyRS,1,,,,8124
Root,1,,,,6938
CG32305,1,,,,6458
Nepl11,1,,,,6512
Gmppa,1,,,,6250
IntS11,1,-3,,,11357
CG17258,1,,reporter ratio lowered past the hit cutoff,,7418
CG17258,2,,,,5026
mof,1,,,,5727
CG7196 (retired record),1,,,,4990
CG7196 (retired record),2,,,,7617
bug,1,,,,7794
Sbp2,1,,,,6978
DCTN3-p24,1,,,,90139
Snap29,1,,,,5962
Or47a,1,,,,6255
E(spl)mgamma-HLH,1,,,,7648
CG9855,1,,,,4271
lectin-21Cb,1,,,,7852
Coq8,1,,,,5339
Rsph4a,1,,,,8746
CG7798,1,,,,6555
CG43325,1,,,,6123
CG12782,1,,,,6144
frma,1,,,,7926
Ac76E,1,,,,4851
Ac76E,2,,,,8515
CG42471,1,,,,4456
CG7840,1,,,,13240
CG14315,1,,,,7607
CG13907,1,,,,11290
CG14262,1,,,,5575
mRpL35,1,,,,6154
Rpe,1,,,,8881
CG4712,1,,,,5771
CG12684,1,,,,5919
CG8564,1,,,,8750
CG8349,1,,,,6767
betaNACtes4,1,,,,4603
Iyd,1,,,,5323
Iyd,2,,,,5432
Fkbp39,1,,,reporter ratio lowered past the hit cutoff (active),6994
ZnT49B,1,,,,5223
CG15211,1,,,,6310
Ir20a,1,,,,5148
CG13589,1,,,,6494

Reagents above called active, once more:
Target gene,reagent no.,siRNA reporter hit score,stable siRNA reporter change,miRNA reporter change,"stable assay Renilla, run 1 (luminescence)"
Fkbp39,1,,,reporter ratio lowered past the hit cutoff (active),6994
